The values below come from article doi:10.1101/2022.01.03.474785.

Experiment [1] concerns the target T1, Snf7-6His (yeast), P39929.
T1 chain: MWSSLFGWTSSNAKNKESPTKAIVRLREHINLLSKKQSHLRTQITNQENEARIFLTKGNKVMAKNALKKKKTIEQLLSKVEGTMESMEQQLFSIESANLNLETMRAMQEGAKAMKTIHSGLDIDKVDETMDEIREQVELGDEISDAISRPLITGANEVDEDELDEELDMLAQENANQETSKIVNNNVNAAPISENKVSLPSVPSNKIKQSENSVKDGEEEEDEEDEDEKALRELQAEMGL
Put plainly: pull-down. The following applies: remark: other sources report otherwise.

In a further experiment the target is T2, sfGFP-Vps68 (yeast) (UniProt Q12016).
T2 sequence: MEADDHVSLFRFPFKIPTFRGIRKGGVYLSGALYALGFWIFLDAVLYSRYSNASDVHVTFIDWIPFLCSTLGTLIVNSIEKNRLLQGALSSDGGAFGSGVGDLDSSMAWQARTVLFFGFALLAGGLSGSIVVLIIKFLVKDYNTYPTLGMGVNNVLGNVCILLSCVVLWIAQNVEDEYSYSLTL
Put plainly: co-IP.

No constants are given. Whether binding was seen depends on the method and setting. Binding seen in cells or lysates may run through a third protein. Some entries that bind do so weakly or less than the wild type. Sequences can lack the tags named with a protein.

B1: Did2, P69771 1-204 (protein)
chain: MSRNSAAGLENTLFQLKFTSKQLQKQANKASKEEKQETNKLKRALNENEDISRIYASNAIRKKNERLQLLKLASRVDSVASRVQTAVTMRQVSASMGQVCKGMDKALQNMNLQQITMIMDKFEQQFEDLDTSVNVYEDMGVNSDAMLVDNDKVDELMSKVADENGMELKQSAKLDNVPEIKAKEVNVDDEKEDKLAQRLRALRG
As for B1, the binding result in experiment [1] is on record as “no binding”.

B2: Vps2, P36108 1-232 (protein)
chain: MSLFEWVFGKNVTPQERLKKNQRALERTQRELEREKRKLELQDKKLVSEIKKSAKNGQVAAAKVQAKDLVRTRNYIQKFDNMKAQLQAISLRIQAVRSSDQMTRSMSEATGLLAGMNRTMNLPQLQRISMEFEKQSDLMGQRQEFMDEAIDNVMGDEVDEDEEADEIVNKVLDEIGVDLNSQLQSTPQNLVSNAPIAETAMGIPEPIGAGSEFHGNPDDDLQARLNTLKKQT
For the molecule B2, the binding result in experiment [1] is reported as “no binding”.

B3: Vps24, P36095 1-224 (protein)
chain: MDYIKKAIWGPDPKEQQRRIRSVLRKNGRNIEKSLRELTVLQNKTQQLIKKSAKKNDVRTVRLYAKELYQINKQYDRMYTSRAQLDSVRMKIDEAIRMNTLSNQMADSAGLMREVNSLVRLPQLRNTMIELEKELMKSGIISEMVDDTMESVGDVGEEMDEAVDEEVNKIVEQYTNEKFKNVDQVPTVELAANEEEQEIPDEKVDEEADRMVNEMRERLRALQN
Consider B3, for which the binding entry in experiment [1] is “no binding”.

B4: Snf7 (protein, UniProt P39929 1-240)
chain: T1 chain
For B4, in the experiment with sfGFP-Vps68 (yeast), the binding result is recorded as “binds”.
